Data reported in patent publication US20210356472A1, “METHODS AND COMPOSITIONS FOR DETECTION AND VISUALIZATION OF OXIDATIVE STRESS-INDUCED CARBONYLATION IN CELLS” (The Research Foundation for The State University of New York, priority 2020, published 2021).

Test: Limit of detection of TFCZ in A549 cell lysate
Conditions: for limit of detection (LOD): in cell lysate of A549 lung cancer cells

SMILES | limit of detection (LOD) | limit of detection, fold lower than BzCH (compared with BzCH)
CCC=NNc1ccc2c(C(F)(F)F)cc(=O)oc2c1 [TFCZ, 7-(2-Propylidenehydrazinyl)-4-(trifluoromethyl)-2H-chromen-2-one] | ~89 nM | 
NNc1ccc2c(C(F)(F)F)cc(=O)oc2c1 [TFCH, 4-Trifluoromethyl-7-hydrazinyl-2H-chromen-2-one] | about 89 nM | about 10 fold
